From patent US11332470B2, “CXCR4 inhibitors and uses thereof” (X4 Pharmaceuticals, Inc., priority 2016, dated 2022)

Chains of the proteins cited; added tags and fusions are not shown.
UniProt P61073, whole entry: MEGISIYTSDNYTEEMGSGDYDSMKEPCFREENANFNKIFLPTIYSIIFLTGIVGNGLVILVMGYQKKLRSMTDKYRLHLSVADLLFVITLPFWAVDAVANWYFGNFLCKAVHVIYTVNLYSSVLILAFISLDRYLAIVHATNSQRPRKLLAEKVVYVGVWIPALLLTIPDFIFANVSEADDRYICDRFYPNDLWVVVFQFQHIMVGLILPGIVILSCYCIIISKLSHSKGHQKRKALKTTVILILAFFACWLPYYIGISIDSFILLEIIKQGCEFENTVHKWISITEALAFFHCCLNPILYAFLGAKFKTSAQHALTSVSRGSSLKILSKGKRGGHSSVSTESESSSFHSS

Assays:
[1] = target: CXCR4 (U87.CXCR4 cells) (Homo sapiens, UniProt P61073); test: Intracellular CXCL-12-induced calcium mobilization assay (FLIPR); details: read-out: IC50 CXCL-12 Ca2+ flux U87.CXCR4+, CXCL-12 25-50 ng/mL
[2] = target: CXCR4 (Jurkat cells expressing CXCR4) (Homo sapiens, UniProt P61073); test: Chemokine (CXCL12-AF647) binding inhibition assay; details: read-out: IC50 CXCL-12 binding Jurkat, CXCL12-AF647 25 ng/mL

## Cc1cccnc1C1CCCN1C(C)c1cn2c(N3CCN(C)CC3)cccc2n1 (centres unmarked)
[1]
  IC50: 0.01 to 100 nM
[2]
  IC50: 0.01 to 100 nM

Structures were worked out from names or drawings and are uncertain.
